Data published in patent US12383628B2 (priority 2016, dated 2025).
Square brackets hold non-standard residues; d marks the D form. Ends that are not written are not given here. Peptide text beside a SMILES is read from it. β3hF = N[C@H](CC(=O)O)Cc1ccccc1

system: L929 mouse fibroblasts; test: Cytotoxicity, Live/Dead viability staining on hydrogels (Example 9); assay type: cell-based; conditions: 24 h after seeding
Experimental: Hydrogels were prepared at 1, 2 or 3 mg/100 μL as duplicate in a 96-well ULA plate (Cat #CORN3474; Corning-Costar, 60 μL each well). The gels were photographed and pre-equilibrated before seeding with cells. For equilibration, gels were incubated at room temperature in 40 μL of L929 culture medium with double-strength Anti-Anti (Cat #15240062, GIBCO) for 2 h prior to seeding with cells. The equilibration medium was removed before cell seeding and retained to examine if the gels dissolved (even partially) or disintegrated into the culture medium. Next, […] mouse fibroblasts (ATCC) were seeded onto hydrogels at a concentration of 200,000 cells/ml in a volume of 50 μl. The cells were photographed immediately after seeding, observed by microscopy 2 h post-seeding and then observed and photographed at 24 h post-seeding. The cell culture medium consisted of MEM+GlutaMAX I (Cat #41090-036; GIBCO); 10% foetal bovine serum (Cat #12003C; SAFC, Sigma), 2× Anti-Anti (Cat #[…]) and 1× Non-Essential Amino Acids (Cat #41090-036; GIBCO).
Bright field microscopy was performed through use of a IX71 inverted microscope with NIS-Elements F3.0 imaging software (Olympus). The TE2000 Eclipse fluorescent microscope with NIS-Elements AR3.2 software (Nikon) was used for fluorescence imaging microscopy. Automated cell counting was performed on the NC-200 NucleoCounter using proprietary lysis and stabilising reagents and cassettes (ChemoMetec).
The viability and distribution of cells was assessed using a LIVE/DEAD Viability/Cytotoxicity Kit *for Mammalian cells* (Live-Dead Kit), (Cat #13224; Molecular Probes). Briefly, a working solution of live/dead solution was made as per manufacturer's instructions by adding 1.25 μl of Calcein AM (solution A) to 2.5 ml of pre-warmed PBS. The solution was thoroughly mixed by vortex and 2.5 μl of Ethidium homodimer (solution B), was added before vortexing a second time to mix. Excess medium was removed and the gels rinsed with 20 μl of warm PBS before a 40 μl of Live/Dead kit working solution was added to each well. The plate was incubated in a 37° C. cell culture incubator for 20 min before viewing using a fluorescent microscope. Green fluorescence was emitted from the cytoplasm of viable cells (excitation/emission ˜495 nm/˜515 nm) while dead cell nuclei fluoresced red (excitation/emission ˜495/˜635 nm) allowing a distinction to be made between viable and dead cells.

| Compound | Cell morphology on hydrogel |
| --- | --- |
| NCCCC[C@@H](N)C(=O)N[C@H](Cc1ccccc1)C(=O)N[C@H](CCC(N)=O)C(=O)N[C@H](Cc1ccccc1)C(=O)N[C@H](CCC(=O)O)C(=O)N[C@H](Cc1ccccc1)C(N)=O [peptide 24, H-DLys-DPhe-DGln-DPhe*-DGlu-DPhe-NH2] (H-[dK][dF][dQ][dF][dE][dF]-NH2) | slightly rounded |
| NCCCC[C@H](NC(=O)[C@H](Cc1ccccc1)NC(=O)[C@H](CCC(N)=O)NC(=O)[C@H](Cc1ccccc1)NC(=O)C[C@H](Cc1ccccc1)NC(=O)[C@H](CCC(=O)O)NC(=O)[C@@H](N)Cc1ccccc1)C(N)=O [peptide 27, H-Phe-Glu-13;;-homo-Phe-Phe-Gln-Phe-Lys-NH2] (H-FE[β3hF]FQFK-NH2) | slightly rounded |
| FEFQFK-NH2 [peptide 2, H-Phe-Glu-Phe*-Gln-Phe-Lys-NH2] | slightly rounded |
| FQFQFK-NH2 [peptide 16, H-Phe-Gln-Phe*-Gln-Phe-Lys-NH2] | clear instances of attachment and spreading |
| KFQFEF-NH2 [peptide 18, H-Lys-Phe-Gln-Phe*-Glu-Phe-NH2] | slightly rounded |
| WEWQWK-NH2 [peptide 12, H-Trp-Glu-Trp*-Gln-Trp-Lys-NH2] | clear instances of attachment and spreading |
